Experimental data as given in article doi:10.1101/2024.02.27.582308.
No constants are given. Whether binding was seen depends on the method and setting. In cells and extracts the contact can be indirect. Some entries that bind do so weakly or less than the wild type. One block for each binder: values may come before it.

How the values were obtained:
[1] = target: T1, MTERF3 (human (endogenous in HEK293T)) (UniProt Q96E29); experiment: thermal proximity coaggregation analysis
T1 sequence: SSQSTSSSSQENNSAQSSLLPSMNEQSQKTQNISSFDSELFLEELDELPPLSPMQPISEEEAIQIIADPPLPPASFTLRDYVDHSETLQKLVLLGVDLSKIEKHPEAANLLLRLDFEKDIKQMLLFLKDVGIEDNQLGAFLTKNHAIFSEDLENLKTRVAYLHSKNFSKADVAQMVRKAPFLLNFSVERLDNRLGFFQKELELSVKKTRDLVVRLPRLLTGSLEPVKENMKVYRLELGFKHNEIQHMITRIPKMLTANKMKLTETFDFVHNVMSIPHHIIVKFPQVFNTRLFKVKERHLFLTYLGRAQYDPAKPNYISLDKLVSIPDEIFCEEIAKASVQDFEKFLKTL

[2] = target: T2, COQ6 (human (endogenous in HEK293T)) (UniProt Q9Y2Z9); experiment: thermal proximity coaggregation analysis
T2 sequence: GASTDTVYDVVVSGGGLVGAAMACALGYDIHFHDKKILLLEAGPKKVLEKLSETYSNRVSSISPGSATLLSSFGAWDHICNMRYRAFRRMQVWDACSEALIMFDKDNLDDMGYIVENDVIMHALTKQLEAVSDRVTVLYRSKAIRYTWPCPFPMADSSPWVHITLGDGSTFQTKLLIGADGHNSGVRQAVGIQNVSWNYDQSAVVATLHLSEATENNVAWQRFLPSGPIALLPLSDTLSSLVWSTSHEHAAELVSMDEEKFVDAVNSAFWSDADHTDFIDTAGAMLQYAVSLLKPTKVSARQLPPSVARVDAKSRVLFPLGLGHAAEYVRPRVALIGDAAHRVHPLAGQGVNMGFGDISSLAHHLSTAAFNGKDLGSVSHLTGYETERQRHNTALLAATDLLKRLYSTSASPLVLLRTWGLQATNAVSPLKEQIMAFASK

binding [1]: binds
B1: TRUB2 (protein, UniProt O95900 11-331)
chain: GLFAVYKPPGLKWKHLRDTVELQLLKGLNARKPPAPKQRVRFLLGPMEGSEEKELTLTATSVPSFINHPLVCGPAFAHLKVGVGHRLDAQASGVLVLGVGHGCRLLTDMYNAHLTKDYTVRGLLGKATDDFREDGRLVEKTTYDHVTREKLDRILAVIQGSHQKALVMYSNLDLKTQEAYEMAVRGLIRPMNKSPMLITGIRCLYFAPPEFLLEVQCMHETQKELRKLVHEIGLELKTTAVCTQVRRTRDGFFTLDSALLRTQWDLTNIQDAIRAATPQVAAELEKSLSPGLDTKQLPSPGWSWDSQGPSSTLGLERGAGQ

binding [2]: binds
B2: COQ3 (protein, UniProt Q9NZJ6 86-369)
chain: STSQTTVDSGEVKTFLALAHKWWDEQGVYAPLHSMNDLRVPFIRDNLLKTIPNHQPGKPLLGMKILDVGCGGGLLTEPLGRLGASVIGIDPVDENIKTAQCHKSFDPVLDKRIEYRVCSLEEIVEETAETFDAVVASEVVEHVIDLETFLQCCCQVLKPGGSLFITTINKTQLSYALGIVFSEQIASIVPKGTHTWEKFVSPETLESILESNGLSVQTVVGMLYNPFSGYWHWSENTSLNYAAYAVKSRVQEHPASAEFVLKGETEELQANACTNPAVHEKLKK
